Common to all, as to assay: co-IP
In assay [1] the target is MEK2-FLAG (human (cDNA from A549 cells)) (UniProt P36507).
The target of assay [2] is full length PKCα (PKCα-FL) (UniProt P17252).
Assay [3] addresses nucleoprotein of A/H1N1/WSN virus in infected cells (NP/RNP) (influenza A virus A/WSN/1933 (H1N1)) (UniProt P15682).

Chains of the proteins cited; added tags and fusions are not shown. Lines headed by an entry give the natural chain unless they say otherwise; changes in a name come on top.
UniProt P15682: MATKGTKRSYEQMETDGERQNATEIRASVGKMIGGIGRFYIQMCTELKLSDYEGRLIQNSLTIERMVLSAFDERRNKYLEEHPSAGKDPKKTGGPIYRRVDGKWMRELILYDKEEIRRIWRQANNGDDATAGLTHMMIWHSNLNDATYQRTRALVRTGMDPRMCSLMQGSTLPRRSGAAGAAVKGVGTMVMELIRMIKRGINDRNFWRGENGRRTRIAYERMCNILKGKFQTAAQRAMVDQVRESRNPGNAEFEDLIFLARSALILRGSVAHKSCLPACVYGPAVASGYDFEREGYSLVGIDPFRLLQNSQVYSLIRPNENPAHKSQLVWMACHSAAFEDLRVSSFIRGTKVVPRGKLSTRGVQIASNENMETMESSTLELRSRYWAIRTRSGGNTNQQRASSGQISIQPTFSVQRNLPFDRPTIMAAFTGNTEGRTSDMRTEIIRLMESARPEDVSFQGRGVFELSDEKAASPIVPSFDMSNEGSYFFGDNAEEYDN

These are yes or no findings as the source states them, for the method shown. Binding seen in cells or lysates may run through a third protein. Some binding calls cover weakened binding; strength is not graded here.

As to “influenza A/H1N1/WSN nucleoprotein, V5-tagged (NP-V5) (from UniProt P15682 8-498)”, the binding result in assay [1] is listed as “no binding”; in assay [2] it was “binds”.
Consider “endogenous PKCα (from UniProt P17252 1-672) (enzyme)”, for which, in assay [3], the binding result is on record as “binds”.

For the origin of these results see publication doi:10.1101/2025.03.06.641832 (bioRxiv, 2025).
